Data taken from patent US20080280759A1, “6-(2-Fluoro-4-Alkoxyphenyl) Triazolopyrimidines, Their Preparation, Their Use For Controlling Harmful Fungi, and Compositions Comprising Them” (priority 2003, published 2008).
Some results were stated once for a whole list of compounds, not compound by compound.

System: Pyrenophora [syn. Drechslera] teres
Experiment: Activity against net blotch of barley caused by Pyrenophora teres, 1 day protective application
Format: in vivo, Pyrenophora teres on barley seedlings cultivar Hanna
Details: 250 ppm, sprayed 24 h before inoculation, assessed visually after 6 days, untreated plants 80% infected

How did the “infection of the entire leaf area” value turn out when “5-methoxy-6-(2,6-difluoro-4-methoxyphenyl)-7-(4-methyl-piperidinyl)-1,2,4-triazolo[1,5a]pyrimidine [Compound I-3]” was run?
Its value is “not more than 1%”.

For COc1cc(F)c(-c2c(C)nc3ncnn3c2N2CCC(C)CC2)c(F)c1 [Compound I-2, 5-methyl-6-(2,6-difluoro-4-methoxyphenyl)-7-(4-methyl-piperidinyl)-1,2,4-triazolo[1,5a]pyrimidine], which “infection of the entire leaf area” value is on record?
The value was “not more than 1%”.

How did the “infection of the entire leaf area” value turn out when COc1cc(F)c(-c2c(C#N)nc3ncnn3c2N2CCC(C)CC2)c(F)c1 [Compound I-1, 5-cyano-6-(2,6-difluoro-4-methoxyphenyl)-7-(4-methyl-piperidinyl)-1,2,4-triazolo[1,5a]pyrimidine] was run?
The value was “not more than 1%”.
